For test [1], the target named is FASN in 293T cells (Figure 3D and 3H; tag not told) (UniProt P49327). As to the kind of experiment: co-IP; 293T cells (Fig. 3D); constructs and antibodies not told.
The target in test [2] is HA-tagged FASN (UniProt P49327). As to the kind of experiment: co-IP; 293T cells transfected with HA-FASN, FLAG-USP2 and MYC-VCP plasmids or their deletion and truncation mutants; lysates immunoprecipitated with tag antibodies (anti-MYC, anti-FLAG, anti-HA), western blot.
For test [3], the target named is Fatty acid synthase (FASN), endogenous in osteosarcoma cells (human (endogenous in 143B and U2OS)) (UniProt P49327). Description: co-IP; endogenous proteins; 143B and U2OS lysates immunoprecipitated with FASN, VCP and USP2 antibodies, western blot; also after EBSS for 0, 2, 4 and 6 h (FASN-VCP interaction increased). A general note: In western blotting, separated proteins are transferred to a membrane and probed.

Sequences of proteins named here, by UniProt entry; tags and fusion partners are left off.
UniProt P49327: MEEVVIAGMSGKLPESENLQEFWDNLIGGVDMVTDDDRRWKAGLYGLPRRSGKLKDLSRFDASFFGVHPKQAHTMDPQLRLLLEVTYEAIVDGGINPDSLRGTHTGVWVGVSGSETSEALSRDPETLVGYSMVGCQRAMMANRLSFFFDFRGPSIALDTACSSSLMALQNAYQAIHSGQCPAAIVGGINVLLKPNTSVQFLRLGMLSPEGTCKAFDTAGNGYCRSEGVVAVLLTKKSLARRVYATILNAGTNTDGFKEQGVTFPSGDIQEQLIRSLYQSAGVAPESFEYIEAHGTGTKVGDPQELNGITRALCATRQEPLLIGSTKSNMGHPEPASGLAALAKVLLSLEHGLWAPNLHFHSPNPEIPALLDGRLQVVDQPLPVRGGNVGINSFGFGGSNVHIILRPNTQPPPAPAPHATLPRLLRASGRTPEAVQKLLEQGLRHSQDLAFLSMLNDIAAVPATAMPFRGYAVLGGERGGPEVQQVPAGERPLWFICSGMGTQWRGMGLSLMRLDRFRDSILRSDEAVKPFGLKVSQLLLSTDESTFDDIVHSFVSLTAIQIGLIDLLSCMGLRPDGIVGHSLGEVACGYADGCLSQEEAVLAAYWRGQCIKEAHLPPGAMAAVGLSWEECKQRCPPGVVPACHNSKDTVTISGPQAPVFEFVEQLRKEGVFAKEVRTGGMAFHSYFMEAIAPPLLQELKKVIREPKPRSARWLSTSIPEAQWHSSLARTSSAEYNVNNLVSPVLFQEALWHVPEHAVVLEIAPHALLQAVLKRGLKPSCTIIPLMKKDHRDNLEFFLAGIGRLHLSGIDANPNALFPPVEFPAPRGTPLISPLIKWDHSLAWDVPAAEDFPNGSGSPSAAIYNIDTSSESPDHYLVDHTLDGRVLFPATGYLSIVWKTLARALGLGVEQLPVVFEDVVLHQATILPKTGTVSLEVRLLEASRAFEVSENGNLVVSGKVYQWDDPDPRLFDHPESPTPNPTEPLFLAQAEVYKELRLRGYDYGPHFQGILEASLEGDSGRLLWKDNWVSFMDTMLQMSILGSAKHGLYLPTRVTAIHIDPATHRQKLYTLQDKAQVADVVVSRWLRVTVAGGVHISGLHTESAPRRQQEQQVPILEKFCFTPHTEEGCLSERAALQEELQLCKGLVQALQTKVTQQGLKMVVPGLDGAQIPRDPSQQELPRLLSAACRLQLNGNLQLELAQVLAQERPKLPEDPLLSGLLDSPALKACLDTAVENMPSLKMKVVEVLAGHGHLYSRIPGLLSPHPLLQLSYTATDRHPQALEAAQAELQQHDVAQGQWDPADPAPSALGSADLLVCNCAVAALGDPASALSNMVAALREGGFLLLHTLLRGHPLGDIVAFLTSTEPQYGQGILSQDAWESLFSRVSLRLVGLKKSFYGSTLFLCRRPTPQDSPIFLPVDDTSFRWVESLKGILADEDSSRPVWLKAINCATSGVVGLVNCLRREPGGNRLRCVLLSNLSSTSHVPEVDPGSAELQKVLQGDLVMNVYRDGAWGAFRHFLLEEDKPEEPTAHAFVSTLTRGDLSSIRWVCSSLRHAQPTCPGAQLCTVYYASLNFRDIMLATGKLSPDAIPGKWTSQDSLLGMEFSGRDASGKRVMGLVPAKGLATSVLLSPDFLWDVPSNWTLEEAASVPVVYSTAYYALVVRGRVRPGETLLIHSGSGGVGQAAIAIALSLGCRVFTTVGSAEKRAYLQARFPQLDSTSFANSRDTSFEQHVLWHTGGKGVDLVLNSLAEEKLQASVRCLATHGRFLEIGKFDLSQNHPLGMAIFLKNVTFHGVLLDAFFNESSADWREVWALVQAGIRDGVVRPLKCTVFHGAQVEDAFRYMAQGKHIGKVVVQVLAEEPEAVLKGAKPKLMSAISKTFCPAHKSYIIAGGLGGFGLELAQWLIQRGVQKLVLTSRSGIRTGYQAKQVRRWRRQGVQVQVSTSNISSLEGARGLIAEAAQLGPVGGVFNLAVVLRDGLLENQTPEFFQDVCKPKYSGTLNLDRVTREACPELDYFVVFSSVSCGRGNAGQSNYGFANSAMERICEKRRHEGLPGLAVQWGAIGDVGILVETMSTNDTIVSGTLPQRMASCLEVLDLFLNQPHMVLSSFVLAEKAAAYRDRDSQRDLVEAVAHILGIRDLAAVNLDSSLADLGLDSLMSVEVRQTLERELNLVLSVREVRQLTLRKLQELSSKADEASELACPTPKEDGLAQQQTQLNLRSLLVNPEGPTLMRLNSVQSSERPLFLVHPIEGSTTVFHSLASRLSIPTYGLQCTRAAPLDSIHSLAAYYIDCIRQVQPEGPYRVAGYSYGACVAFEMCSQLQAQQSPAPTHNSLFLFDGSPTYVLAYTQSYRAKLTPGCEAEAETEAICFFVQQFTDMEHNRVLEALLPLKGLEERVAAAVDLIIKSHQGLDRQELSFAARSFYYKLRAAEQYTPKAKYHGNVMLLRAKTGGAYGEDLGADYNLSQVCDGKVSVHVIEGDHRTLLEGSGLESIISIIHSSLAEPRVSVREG

These are yes or no findings as the source states them, for the method shown. In cells and extracts the contact can be indirect. Some entries that bind do so weakly or less than the wild type.

In the case of “VCP in 293T cells (Figure 3D; tag not told) (from UniProt P55072 1-806)”, in test [1], the binding entry is on record as “binds”.

For the substance “MYC-labeled full-length VCP (from UniProt P55072 1-806)”, in test [2], the binding result is reported as “binds”.

For “Valosin-containing protein (VCP), endogenous in osteosarcoma cells (from UniProt P55072 1-806)”, in test [3], the binding entry was “binds”.

(Values after publication PMC11532476.)
